Laboratory results reported in article PMC5443798, “Functional characterization of the meiosis-specific DNA double-strand break inducing factor SPO-11 from C. elegans”.
No constants are given. Whether binding was seen depends on the method and setting.

Legend:
[1] = target: C. elegans SPO-11 (C. elegans) (UniProt Q22236); test: AUC; sedimentation equilibrium, SPO-11 7.6 μM and 15.7 μM, T buffer supplemented with 300 mM KCl, 4 °C, 11,000, 13,200 and 23,000 rpm, single ideal species model; both purified
[2] = target: C. elegans SPO-11 (C. elegans) (UniProt Q22236); test: AUC; sedimentation velocity, SPO-11 9.2 μM, T buffer supplemented with 300 mM KCl, 4 °C, 50,000 rpm, Sedfit; both purified
[3] = target: C. elegans SPO-11 (C. elegans) (UniProt Q22236); test: SEC; Superdex 75 10/300 GL, T buffer supplemented with 300 mM KCl, calibrated with size standards; both purified

binding [1]: no binding (tested: 15.7 μM)
binding [2]: no binding (tested: 9.2 μM)
binding [3]: no binding
B1: C. elegans SPO-11 (protein, UniProt Q22236 1-425)
chain: MYEYSFNPNIDHEPGSVESQQSTIYSDSDDSDDSFLDDEVIPPKEQAMRKIEFALADIKRQMDNKEKSLTLRISTSKSHFCLRYTAKRKGKLDRDLHCLHQVYDLLENDKRSTKRELYYEHKAVYGNQKYLDSSIKSICELLNESRANLNILSCGRGIIRGAITFLVENVGVIDARVQEVLITDALLFSNIISEADFILVVEKDTTFQKLMDENFQAMFPRGILATSKGYPDIATRNVLKMLSEKRKFPIYGLFDADPHGIEIYLTYKYGPTKEFAEGRGAFVPTIEWIGLFPTDFHRFTIDQSQCLPLVRTDFVKIEKMIPRSIQLGEIVVTRELDWMIQNKFKMELESINMCGQEYMARFLIAPRVMSIEKEIPIQPETIINEYHEDSQCSLSTDDDREAKDDDYIDSDAEEKFQNMIDNDSD
